Values quoted from earlier work in US12115147B2, “Formulations and methods related to eye irritation” (Lebrun Labs LLC, priority 2020, dated 2024).

Tested on: rabbit eye
Conditions: cited from earlier work

For `CC(C)(C)c1ccc(O)cc1` [p-Tert-butylphenol], the “In vivo GHS” value is given as 1 (key: NC (not classified as an irritant); 2A (reversal by 7 days); 2B (reversal by 14 days); 1 (no reversal by 21 days)).
